Literature values as cited in patent US20140107054A1, “Method of treating clostridium difficile-associated diarrhea” (priority 2006, published 2014).
At least one compound was matched to its structure with a doubt left.

Tested on: Eubacterium lentum (43055)
Conditions: QC organism; cited from earlier work

For `CCC[C@@H]1C[C@@H](C(=O)N[C@@H]([C@H]2O[C@H](SC)[C@H](O)[C@@H](O)[C@H]2O)[C@H](C)Cl)N(C)C1` [Clindamycin, clindamycin], the “CLSI (NCCLS) acceptable range of MIC” value is given as 0.06 to 0.25 µg/mL.
